Data taken from article PMC6262623.
Numbering of substitutions follows the chain as printed. Numbers in names are those of the source. These are yes or no findings as the source states them, for the method shown. Binding seen in cells or lysates may run through a third protein. A result given as binding can be weak or reduced; the word gives no strength. Where a sequence is shown, tags or fusion partners need not be part of it.

What was measured:
[1] = molecular target: C-terminal fragment of Elmo1; test: co-IP; 293T cells co-transfected, lysed after 2 days (50 mM Tris pH 7.6, 150 mM NaCl, 1% Triton X-100); lysates incubated with FLAG-conjugated agarose beads 2 h at 4 °C, five washes, immunoblotting
[2] = molecular target: N-terminal fragment of Elmo1; test: as above

B1: wild-type Ephexin4 (tag not told for the experiment) (protein, UniProt Q3U5C8 1-713)
chain: MSQRHSDSSLDEKLLEYRFHAELRLDANGNPIPGLPMVRSSLKARANAAFEPDASEPLPPPPSPEDEEPPRPIVLSTQSPAALKMGTQQLIPKSLAVASKAKTKSPARHQSFGAAVLSKEAARRNPQLFSAPSFSLDDMDMDMVTTGNLRRNLRNQSYRAAMKGPGPPSSKGDSVQLGPKLQALAEEAAQPPSRYPAKNKKTLGRKRAHKGSFKDDPQLYQEIRERGLNTSHESDDDILDEPSGPVGTQRADTTIVVKSYRPAQLTWSQLPEVLESGVLDTLSTEERKRQEAIFEILTSEFSYLHSLSILVTEFLQSRELRATMTQTEHHHLFSNILDVMSASQKFFEALEQRHKAQVCVEDISDILEDHAQHHFHPYIAYCSNEVYQQRTLQKLSNSNAAFRDVLKEIEKRPACGGLPMISFLILPMQRVTRLPLLTDTLCLKTQGHPERYKAASQALKAISKLVKQCNEGAHKMERTEQIYTLNMQLDFGKVKSLPLISASRWLLKRGELFLLEESSIFRKIASRPTCYLFLFNDVLVVTKKKSEESYLVQDYAQLDHVQVRKLEPSEPLLPGGSSRSSSVPYPFQVNLLHNSEGRQEQILLSSDSASDRARWITALTYKERQWQGITNKGELPQVEVTKAYFAKQADEITLQQADIVLVLQEEDGWLHGERLRDGETGWFPESFAHSITSRVAVEGNVRRMERLRVETDV
binding [1]: binds
binding [2]: binds

B2: Ephexin4^E295A (tag not told for the experiment) (protein, UniProt Q3U5C8 1-713)
chain: B1 chain with E295A
binding [1]: no binding
binding [2]: no binding
